Source: publication PMC4377584, “Sestrin2 inhibits mTORC1 through modulation of GATOR complexes” (Scientific Reports, 2015)
Where two headings read alike, the source gives them in different places. Results are given in words; binding and its absence hold for the method and conditions named. In cells and extracts the contact can be indirect. A yes stands for co-enrichment or nearness to the bait. Other partners may have been found. For some assays here: No binding means not detected with the bait. Tags and fused reporters may be left off the sequences shown.

The chains behind the UniProt entries cited, without tags or fusion partners.
UniProt O75140: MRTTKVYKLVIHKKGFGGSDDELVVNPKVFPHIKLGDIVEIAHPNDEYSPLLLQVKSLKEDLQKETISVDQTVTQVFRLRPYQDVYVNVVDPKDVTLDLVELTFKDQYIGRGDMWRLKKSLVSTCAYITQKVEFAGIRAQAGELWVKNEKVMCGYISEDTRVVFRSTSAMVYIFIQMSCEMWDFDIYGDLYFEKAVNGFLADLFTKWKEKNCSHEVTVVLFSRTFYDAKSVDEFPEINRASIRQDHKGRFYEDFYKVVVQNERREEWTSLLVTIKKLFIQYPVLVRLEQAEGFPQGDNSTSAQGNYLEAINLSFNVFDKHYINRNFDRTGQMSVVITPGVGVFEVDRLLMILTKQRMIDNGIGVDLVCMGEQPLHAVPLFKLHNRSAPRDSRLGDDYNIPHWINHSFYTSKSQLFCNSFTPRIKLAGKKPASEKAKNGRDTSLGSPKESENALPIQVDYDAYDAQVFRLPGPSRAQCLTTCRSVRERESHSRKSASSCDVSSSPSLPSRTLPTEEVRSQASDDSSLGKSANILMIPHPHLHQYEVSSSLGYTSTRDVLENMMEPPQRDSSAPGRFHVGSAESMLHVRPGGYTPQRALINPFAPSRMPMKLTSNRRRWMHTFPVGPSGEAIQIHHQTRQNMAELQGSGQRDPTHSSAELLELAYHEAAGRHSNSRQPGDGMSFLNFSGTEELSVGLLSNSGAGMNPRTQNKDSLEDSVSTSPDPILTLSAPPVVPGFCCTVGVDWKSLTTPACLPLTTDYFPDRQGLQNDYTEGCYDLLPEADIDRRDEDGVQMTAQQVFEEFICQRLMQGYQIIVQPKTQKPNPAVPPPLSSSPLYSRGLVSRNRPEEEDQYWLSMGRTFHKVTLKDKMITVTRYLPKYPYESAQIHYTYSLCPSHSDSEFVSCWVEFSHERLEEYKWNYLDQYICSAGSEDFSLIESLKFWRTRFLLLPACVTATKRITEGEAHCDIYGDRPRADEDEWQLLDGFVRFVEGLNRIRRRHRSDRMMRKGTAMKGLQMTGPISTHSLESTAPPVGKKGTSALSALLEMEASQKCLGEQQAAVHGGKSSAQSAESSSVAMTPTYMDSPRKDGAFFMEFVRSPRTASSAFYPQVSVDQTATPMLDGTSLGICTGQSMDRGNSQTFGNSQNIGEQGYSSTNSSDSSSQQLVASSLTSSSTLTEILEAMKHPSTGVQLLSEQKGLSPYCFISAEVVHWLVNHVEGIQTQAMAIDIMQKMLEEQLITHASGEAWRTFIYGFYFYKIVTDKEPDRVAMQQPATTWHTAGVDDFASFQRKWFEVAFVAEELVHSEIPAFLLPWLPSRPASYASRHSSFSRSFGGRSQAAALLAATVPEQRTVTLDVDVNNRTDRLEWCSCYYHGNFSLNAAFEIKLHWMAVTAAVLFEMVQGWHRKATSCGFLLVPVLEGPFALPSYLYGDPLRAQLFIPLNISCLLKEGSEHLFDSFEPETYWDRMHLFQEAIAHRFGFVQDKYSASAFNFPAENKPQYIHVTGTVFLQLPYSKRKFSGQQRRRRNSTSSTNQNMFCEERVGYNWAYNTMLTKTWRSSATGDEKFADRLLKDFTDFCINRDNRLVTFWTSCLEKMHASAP

B1: WDR59 (endogenous, MCF10A) (protein, UniProt Q6PJI9 1-974)
chain: MAARWSSENVVVEFRDSQATAMSVDCLGQHAVLSGRRFLYIVNLDAPFEGHRKISRQSKWDIGAVQWNPHDSFAHYFAASSNQRVDLYKWKDGSGEVGTTLQGHTRVISDLDWAVFEPDLLVTSSVDTYIYIWDIKDTRKPTVALSAVAGASQVKWNKKNANCLATSHDGDVRIWDKRKPSTAVEYLAAHLSKIHGLDWHPDSEHILATSSQDNSVKFWDYRQPRKYLNILPCQVPVWKARYTPFSNGLVTVMVPQLRRENSLLLWNVFDLNTPVHTFVGHDDVVLEFQWRKQKEGSKDYQLVTWSRDQTLRMWRVDSQMQRLCANDILDGVDEFIESISLLPEPEKTLHTEDTDHQHTASHGEEEALKEDPPRNLLEERKSDQLGLPQTLQQEFSLINVQIRNVNVEMDAADRSCTVSVHCSNHRVKMLVKFPAQYPNNAAPSFQFINPTTITSTMKAKLLKILKDTALQKVKRGQSCLEPCLRQLVSCLESFVNQEDSASSNPFALPNSVTPPLPTFARVTTAYGSYQDANIPFPRTSGARFCGAGYLVYFTRPMTMHRAVSPTEPTPRSLSALSAYHTGLIAPMKIRTEAPGNLRLYSGSPTRSEKEQVSISSFYYKERKSRRWKSKREGSDSGNRQIKAAGKVIIQDIACLLPVHKSLGELYILNVNDIQETCQKNAASALLVGRKDLVQVWSLATVATDLCLGPKSDPDLETPWARHPFGRQLLESLLAHYCRLRDVQTLAMLCSVFEAQSRPQGLPNPFGPFPNRSSNLVVSHSRYPSFTSSGSCSSMSDPGLNTGGWNIAGREAEHLSSPWGESSPEELRFGSLTYSDPRERERDQHDKNKRLLDPANTQQFDDFKKCYGEILYRWGLREKRAEVLKFVSCPPDPHKGIEFGVYCSHCRSEVRGTQCAICKGFTFQCAICHVAVRGSSNFCLTCGHGGHTSHMMEWFRTQEVCPTGCGCHCLLESTF
B2: PPM1A (endogenous, MCF10A) (protein, UniProt P35813 1-382)
chain: MGAFLDKPKMEKHNAQGQGNGLRYGLSSMQGWRVEMEDAHTAVIGLPSGLESWSFFAVYDGHAGSQVAKYCCEHLLDHITNNQDFKGSAGAPSVENVKNGIRTGFLEIDEHMRVMSEKKHGADRSGSTAVGVLISPQHTYFINCGDSRGLLCRNRKVHFFTQDHKPSNPLEKERIQNAGGSVMIQRVNGSLAVSRALGDFDYKCVHGKGPTEQLVSPEPEVHDIERSEEDDQFIILACDGIWDVMGNEELCDFVRSRLEVTDDLEKVCNEVVDTCLYKGSRDNMSVILICFPNAPKVSPEAVKKEAELDKYLECRVEEIIKKQGEGVPDLVHVMRTLASENIPSLPPGGELASKRNVIEAVYNRLNPYKNDDTDSTSTDDMW
B3: NPRL2 (endogenous, MCF10A), Q8WTW4 1-380 (protein)
chain: MGSGCRIECIFFSEFHPTLGPKITYQVPEDFISRELFDTVQVYIITKPELQNKLITVTAMEKKLIGCPVCIEHKKYSRNALLFNLGFVCDAQAKTCALEPIVKKLAGYLTTLELESSFVSMEESKQKLVPIMTILLEELNASGRCTLPIDESNTIHLKVIEQRPDPPVAQEYDVPVFTKDKEDFFNSQWDLTTQQILPYIDGFRHIQKISAEADVELNLVRIAIQNLLYYGVVTLVSILQYSNVYCPTPKVQDLVDDKSLQEACLSYVTKQGHKRASLRDVFQLYCSLSPGTTVRDLIGRHPQQLQHVDERKLIQFGLMKNLIRRLQKYPVRVTREEQSHPARLYTGCHSYDEICCKTGMSYHELDERLENDPNIIICWK
B4: NPRL3 (endogenous, MCF10A), Q12980 1-569 (protein)
chain: MRDNTSPISVILVSSGSRGNKLLFRYPFQRSQEHPASQTSKPRSRYAASNTGDHADEQDGDSRFSDVILATILATKSEMCGQKFELKIDNVRFVGHPTLLQHALGQISKTDPSPKREAPTMILFNVVFALRANADPSVINCLHNLSRRIATVLQHEERRCQYLTREAKLILALQDEVSAMADGNEGPQSPFHHILPKCKLARDLKEAYDSLCTSGVVRLHINSWLEVSFCLPHKIHYAASSLIPPEAIERSLKAIRPYHALLLLSDEKSLLGELPIDCSPALVRVIKTTSAVKNLQQLAQDADLALLQVFQLAAHLVYWGKAIIIYPLCENNVYMLSPNASVCLYSPLAEQFSHQFPSHDLPSVLAKFSLPVSLSEFRNPLAPAVQETQLIQMVVWMLQRRLLIQLHTYVCLMASPSEEEPRPREDDVPFTARVGGRSLSTPNALSFGSPTSSDDMTLTSPSMDNSSAELLPSGDSPLNQRMTENLLASLSEHERAAILSVPAAQNPEDLRMFARLLHYFRGRHHLEEIMYNENTRRSQLLMLFDKFRSVLVVTTHEDPVIAVFQALLP

Columns and labels:
Assay in all cases: affinity purification with mass spectrometry; tandem affinity purification (Flag antibody resin, 3X-Flag peptide elution; streptavidin resin, biotin elution) of Flag-SBP-Sestrin2 from stably infected MCF10A cells lysed with 0.3% CHAPS; LC/ESI MS/MS; proteins also found with vector control taken as false-positive
Flag-SBP-Sestrin2 [1] = target: T1, Flag-SBP-Sestrin2 (UniProt P58004)
T1 sequence: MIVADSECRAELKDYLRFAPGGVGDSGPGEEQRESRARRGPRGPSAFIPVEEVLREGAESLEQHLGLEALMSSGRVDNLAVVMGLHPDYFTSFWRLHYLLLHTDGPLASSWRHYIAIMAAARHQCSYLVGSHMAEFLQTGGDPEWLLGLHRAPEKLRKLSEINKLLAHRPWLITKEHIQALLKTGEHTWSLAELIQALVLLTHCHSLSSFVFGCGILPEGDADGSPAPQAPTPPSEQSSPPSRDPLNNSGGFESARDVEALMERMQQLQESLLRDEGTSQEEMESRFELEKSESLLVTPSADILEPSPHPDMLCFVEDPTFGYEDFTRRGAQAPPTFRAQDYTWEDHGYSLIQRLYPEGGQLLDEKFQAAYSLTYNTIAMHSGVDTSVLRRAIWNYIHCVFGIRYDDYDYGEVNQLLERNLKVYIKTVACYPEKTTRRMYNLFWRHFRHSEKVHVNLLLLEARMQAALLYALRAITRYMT

Flag-SBP-Sestrin2 [2] = target: T1, Flag-SBP-Sestrin2; remark: listed apart in the source
[3] = target: T2, Flag-SBP-Sestrin2, P58004; details: remark: other sources report otherwise
T2 chain: T1 sequence

Molecule | binding (Flag-SBP-Sestrin2 [2]) | binding [3] | further results
DEPDC5 (endogenous, MCF10A) (from UniProt O75140 1-1603) | – | – | binding (Flag-SBP-Sestrin2 [1]): no binding
B1 | binds | – | –
B2 | binds | – | –
B3 | – | no binding | –
B4 | – | no binding | –
